Binding signal data for 23 sequences are collected here from paper PMC7819943, “Rice protein-binding microarrays: a tool to detect cis-acting elements near promoter regions in rice”.

Some of the results follow.

The assay has as its target T1, OsSMF1 (Oryza sativa, UniProt Q6ZLB0 1-436).
T1 sequence: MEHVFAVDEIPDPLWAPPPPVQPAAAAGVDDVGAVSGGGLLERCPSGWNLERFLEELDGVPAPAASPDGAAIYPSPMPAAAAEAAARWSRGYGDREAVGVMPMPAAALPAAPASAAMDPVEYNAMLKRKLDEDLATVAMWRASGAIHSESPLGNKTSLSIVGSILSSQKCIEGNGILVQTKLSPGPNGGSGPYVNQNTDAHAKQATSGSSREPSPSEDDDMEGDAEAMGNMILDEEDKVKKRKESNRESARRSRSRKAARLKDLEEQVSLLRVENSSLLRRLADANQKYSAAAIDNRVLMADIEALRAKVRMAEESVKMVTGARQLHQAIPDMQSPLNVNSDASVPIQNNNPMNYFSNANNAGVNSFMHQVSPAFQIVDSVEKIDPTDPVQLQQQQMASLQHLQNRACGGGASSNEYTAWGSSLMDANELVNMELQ
Kind of assay: protein-binding microarray (RPBM); PBS, 2% BSA, 51.3 ng/ul salmon testes DNA, 50 uM zinc acetate, 200 nM TF, 25 C, 1 h; high values mean tight binding. The conditions noted are these: protein: recombinant; tags: N-terminal polyhistidine and DsRed monomer fusion (pET32a); chain copies: 2; label: CyDye5-dUTP incorporated in the synthesized complementary strand; 3' TTTTT single-stranded linker to array surface; dsDNA, one strand shown. In outline: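 Binding signal is defined as the fluorescence intensity of each feature in arbitrary units, read on an Axon 4000B scanner. Transcription factors with N-terminal polyhistidine and DsRed fusions came from E. coli BL21-CodonPlus and were purified on Ni–NTA. They were incubated at 200 nM for 1 h at 25 °C on a custom Agilent array that had been made double-stranded with Cy5-dUTP, with 50 µM zinc acetate present, and the array was washed.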
“TTGTGATGTCCATGTCACATGCAGTCCATTAAGGCCCTTGCGGAGTCACCTAGTGCAG”: the binding signal was 5190 fluorescence intensity (a.u.).

In the case of “GAAGGCGACCCGTGCGCACGACGCTCGCCGCCGCTTCCTGCGGAGTCACCTAGTGCAG”, the binding signal was 3960 fluorescence intensity (a.u.).

As to “TGATGGTGGTGGTGGTGGTCGTCGTCGTCGGCTGTTTTGCCGGAGTCACCTAGTGCAG”, the binding signal is 4070 fluorescence intensity (a.u.).

Turning to “TTACATGAAATTTACATACAAGTTACACTATTGTTACATGCGGAGTCACCTAGTGCAG”, the binding signal is 22600 fluorescence intensity (a.u.).

With “GTCGTCCGTCAGCACTGCATCCTCCCTCTCTTTCGCTAGCCGGAGTCACCTAGTGCAG”, the binding signal was 3960 fluorescence intensity (a.u.).

For the sequence “GTTGGCTCCCTCCACTACACTGTACTGACTTCGCCCATAGCGGAGTCACCTAGTGCAG”, the binding signal is 4000 fluorescence intensity (a.u.).

In the case of “ATAAACCGCGCGCCTCTCGAATCCGCACCTCGTCACGCACCGGAGTCACCTAGTGCAG”, the binding signal is 3490 fluorescence intensity (a.u.).

Turning to “CCACCTATCCACGTCAACTCCCTCCGTCCCTCGCCCGCGCCGGAGTCACCTAGTGCAG”, the binding signal was 8900 fluorescence intensity (a.u.).

“CACTCCAAGAAGGAGATAGAGTAGTCCACCTCACCAGTTGCGGAGTCACCTAGTGCAG”: the binding signal is 5810 fluorescence intensity (a.u.).

On to “CATAAACTCGGTGTTGCATATTCTTAGGCCCGGTCTTGTGCGGAGTCACCTAGTGCAG”, for which the binding signal is 3310 fluorescence intensity (a.u.).

For the sequence “AGCACCGCATTGGTGATGACCTTAGCCTTGTACACTCCACCGGAGTCACCTAGTGCAG”, the binding signal was 3800 fluorescence intensity (a.u.).

For “TTGGACGAGCTAGTAGTATTTATGAGAGCGCGTCAGCTGTCGGAGTCACCTAGTGCAG”, the binding signal was 3160 fluorescence intensity (a.u.).

Consider “TGGCTGTAGATCGGACCTGACTCAGCATGGCATGGCTGTACGGAGTCACCTAGTGCAG”, for which the binding signal is 14000 fluorescence intensity (a.u.).

In the case of “CTTGAAAACAGACATTCTACACCCCGAACTATTGAAACCGCGGAGTCACCTAGTGCAG”, the binding signal is 20300 fluorescence intensity (a.u.).

For “ATATGAGGAAAGGAGATCGGAAGAATCGAGAAAGCCAGGGCGGAGTCACCTAGTGCAG”, the binding signal is 27100 fluorescence intensity (a.u.).

Take “AGTTCAACTATTCAAGCATGACTAGGAGTCTTTCTGGTCCCGGAGTCACCTAGTGCAG”: the binding signal was 4120 fluorescence intensity (a.u.).

For “AAGCGGCTGCCACGACTCATTGTGTAGTGTCTGCATGTGTCGGAGTCACCTAGTGCAG”, the binding signal is 3280 fluorescence intensity (a.u.).

For “CAGTTCCCAGCTGGACCTCCGACCTCCTACCTCCTCACCTCGGAGTCACCTAGTGCAG”, the binding signal is 3340 fluorescence intensity (a.u.).

With “AACCAACTATTCCACCTAACACTCCACACCTCTTCCTAGACGGAGTCACCTAGTGCAG”, the binding signal is 3180 fluorescence intensity (a.u.).

As for “ATAGTTAGCTAGTCCACATCACAGGCAAAATATGCGCTACCGGAGTCACCTAGTGCAG”, the binding signal is 4120 fluorescence intensity (a.u.).

Turning to “CAGAGTCGCCGTTGGTGGTTTGGTAGCATGACTCTGCCATCGGAGTCACCTAGTGCAG”, the binding signal is 3890 fluorescence intensity (a.u.).

For the sequence “ATCCGATATTACCTGTAATCTTTTCTATGCATACATCATACGGAGTCACCTAGTGCAG”, the binding signal is 3400 fluorescence intensity (a.u.).

Turning to “GTAAATTTCATAAAATCCCACGTATTATGATTCAAATTGCCGGAGTCACCTAGTGCAG”, the binding signal is 5110 fluorescence intensity (a.u.).
